Results published in PMC10270597.
No constants are given. Whether binding was seen depends on the method and setting. In cells and extracts the contact can be indirect. A yes stands for co-enrichment or nearness to the bait. Other partners may have been found.

B1: TAB1 (protein, UniProt Q15750 1-504)
chain: MAAQRRSLLQSEQQPSWTDDLPLCHLSGVGSASNRSYSADGKGTESHPPEDSWLKFRSENNCFLYGVFNGYDGNRVTNFVAQRLSAELLLGQLNAEHAEADVRRVLLQAFDVVERSFLESIDDALAEKASLQSQLPEGVPQHQLPPQYQKILERLKTLEREISGGAMAVVAVLLNNKLYVANVGTNRALLCKSTVDGLQVTQLNVDHTTENEDELFRLSQLGLDAGKIKQVGIICGQESTRRIGDYKVKYGYTDIDLLSAAKSKPIIAEPEIHGAQPLDGVTGFLVLMSEGLYKALEAAHGPGQANQEIAAMIDTEFAKQTSLDAVAQAVVDRVKRIHSDTFASGGERARFCPRHEDMTLLVRNFGYPLGEMSQPTPSPAPAAGGRVYPVSVPYSSAQSTSKTSVTLSLVMPSQGQMVNGAHSASTLDEATPTLTNQSPTLTLQSTNTHTQSSSSSSDGGLFRSRPAHSLPPGEDGRVEPYVDFAEFYRLWSVDHGEQSVVTAP
B2: ANKFY1 (protein, UniProt Q9P2R3 1-1169)
chain: MAEEEVAKLEKHLMLLRQEYVKLQKKLAETEKRCALLAAQANKESSSESFISRLLAIVADLYEQEQYSDLKIKVGDRHISAHKFVLAARSDSWSLANLSSTKELDLSDANPEVTMTMLRWIYTDELEFREDDVFLTELMKLANRFQLQLLRERCEKGVMSLVNVRNCIRFYQTAEELNASTLMNYCAEIIASHWDDLRKEDFSSMSAQLLYKMIKSKTEYPLHKAIKVEREDVVFLYLIEMDSQLPGKLNEADHNGDLALDLALSRRLESIATTLVSHKADVDMVDKSGWSLLHKGIQRGDLFAATFLIKNGAFVNAATLGAQETPLHLVALYSSKKHSADVMSEMAQIAEALLQAGANPNMQDSKGRTPLHVSIMAGNEYVFSQLLQCKQLDLELKDHEGSTALWLAVQHITVSSDQSVNPFEDVPVVNGTSFDENSFAARLIQRGSHTDAPDTATGNCLLQRAAGAGNEAAALFLATNGAHVNHRNKWGETPLHTACRHGLANLTAELLQQGANPNLQTEEALPLPKEAASLTSLADSVHLQTPLHMAIAYNHPDVVSVILEQKANALHATNNLQIIPDFSLKDSRDQTVLGLALWTGMHTIAAQLLGSGAAINDTMSDGQTLLHMAIQRQDSKSALFLLEHQADINVRTQDGETALQLAIRNQLPLVVDAICTRGADMSVPDEKGNPPLWLALANNLEDIASTLVRHGCDATCWGPGPGGCLQTLLHRAIDENNEPTACFLIRSGCDVNSPRQPGANGEGEEEARDGQTPLHLAASWGLEETVQCLLEFGANVNAQDAEGRTPIHVAISSQHGVIIQLLVSHPDIHLNVRDRQGLTPFACAMTFKNNKSAEAILKRESGAAEQVDNKGRNFLHVAVQNSDIESVLFLISVHANVNSRVQDASKLTPLHLAVQAGSEIIVRNLLLAGAKVNELTKHRQTALHLAAQQDLPTICSVLLENGVDFAAVDENGNNALHLAVMHGRLNNIRVLLTECTVDAEAFNLRGQSPLHILGQYGKENAAAIFDLFLECMPGYPLDKPDADGSTVLLLAYMKGNANLCRAIVRSGARLGVNNNQGVNIFNYQVATKQLLFRLLDMLSKEPPWCDGSYCYECTARFGVTTRKHHCRHCGRLLCHKCSTKEIPIIKFDLNKPVRVCNICFDVLTLGGVS
B3: HSD17B10 (protein, UniProt Q99714 1-261)
chain: MAAACRSVKGLVAVITGGASGLGLATAERLVGQGASAVLLDLPNSGGEAQAKKLGNNCVFAPADVTSEKDVQTALALAKGKFGRVDVAVNCAGIAVASKTYNLKKGQTHTLEDFQRVLDVNLMGTFNVIRLVAGEMGQNEPDQGGQRGVIINTASVAAFEGQVGQAAYSASKGGIVGMTLPIARDLAPIGIRVMTIAPGLFGTPLLTSLPEKVCNFLASQVPFPSRLGDPAEYAHLVQAIIENPFLNGEVIRLDGAIRMQP

Each binder was assayed against Flag tagged HEV ORF1 protein (ORF1-Flag) (hepatitis E virus (HEV)) (assay: affinity purification with mass spectrometry; SILAC-labelled HepG2C3A cells expressing ORF1-Flag or GFP-Flag; lysates (50 mM Tris-HCl pH 7.5, 150 mM NaCl, 1 mM EDTA, 1% NP-40) on anti-Flag M2 magnetic beads overnight at 4°C; light and heavy eluates mixed, Orbitrap Fusion MS; hits ORF1/GFP fold change>3 and score>5).

Question: Which binding does the source give for B1 here?
Answer: binds

Question: How did the binding turn out when B2 was run?
Answer: binds

Question: With B3 as the binder, how does the binding read?
Answer: binds
